Results taken from patent US20090192084A1.
Results are given in words; binding and its absence hold for the method and conditions named. Binding seen in cells or lysates may run through a third protein. Binding can be weak; no strength is given.

How the values were obtained:
[1] = target: p97-Myc; test: p97-Myc co-IP, HeLa cells, MG132, western blot
[2] = target: p97-Myc; test: p97-Myc co-IP, 293 cells, MudPIT MS

- binding [1]: binds
- binding [2]: binds
B1: endogenous UBXD7 (protein, human, UniProt O94888 2-489, looked up)
chain: AAHGGSAASSALKGLIQQFTTITGASESVGKHMLEACNNNLEMAVTMFLDGGGIAEEPSTSSASVSTVRPHTEEEVRAPIPQKQEILVEPEPLFGAPKRRRPARSIFDGFRDFQTETIRQEQELRNGGAIDKKLTTLADLFRPPIDLMHKGSFETAKECGQMQNKWLMINIQNVQDFACQCLNRDVWSNEAVKNIIREHFIFWQVYHDSEEGQRYIQFYKLGDFPYVSILDPRTGQKLVEWHQLDVSSFLDQVTGFLGEHGQLDGLSSSPPKKCARSESLIDASEDSQLEAAIRASLQETHFDSTQTKQDSRSDEESESELFSGSEEFISVCGSDEEEEVENLAKSRKSPHKDLGHRKEENRRPLTEPPVRTDPGTATNHQGLPAVDSEILEMPPEKADGVVEGIDVNGPKAQLMLRYPDGKREQITLPEQAKLLALVKHVQSKGYPNERFELLTNFPRRKLSHLDYDITLQEAGLCPQETVFVQERN
